Measured values published in article PMC8880919.
Results are given in words; binding and its absence hold for the method and conditions named. Binding seen in cells or lysates may run through a third protein. Some entries that bind do so weakly or less than the wild type.

Protein sequences, listed by entry. Tags and fused reporters are not part of them.
UniProt O94529: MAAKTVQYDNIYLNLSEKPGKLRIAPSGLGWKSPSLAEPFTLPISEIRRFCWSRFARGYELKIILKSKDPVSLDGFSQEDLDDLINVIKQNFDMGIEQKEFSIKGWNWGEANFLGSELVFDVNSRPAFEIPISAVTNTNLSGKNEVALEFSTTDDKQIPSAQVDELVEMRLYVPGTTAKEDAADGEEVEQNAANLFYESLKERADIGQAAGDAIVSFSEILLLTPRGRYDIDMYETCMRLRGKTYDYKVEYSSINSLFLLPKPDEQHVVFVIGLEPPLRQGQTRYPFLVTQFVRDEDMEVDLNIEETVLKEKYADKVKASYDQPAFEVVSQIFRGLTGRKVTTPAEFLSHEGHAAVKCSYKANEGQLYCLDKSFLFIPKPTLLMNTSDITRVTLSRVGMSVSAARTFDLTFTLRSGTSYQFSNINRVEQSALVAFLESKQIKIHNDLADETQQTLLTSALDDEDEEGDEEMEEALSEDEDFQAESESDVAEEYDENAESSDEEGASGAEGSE

Experiments:
Experiment in all cases: co-IP; protein extracts of wild type S. pombe cells expressing chromosomally tagged proteins; 500 ug protein, IP with anti-MYC or anti-FLAG overnight at 4 C, protein A/G sepharose; lysis buffer PBS pH 7.0, 200 mM NaCl, 0.5 mM EGTA, 0.5 mM EDTA, 0.1% Triton X100; five washes at 220 mM NaCl; blots with anti-HA, anti-FLAG or anti-MYC
Pob3 (S. pombe) = Pob3 (S. pombe) (UniProt O94529)
Tpr1 (S. pombe) = target: T1, Tpr1 (S. pombe) (UniProt O42668)
T1 sequence: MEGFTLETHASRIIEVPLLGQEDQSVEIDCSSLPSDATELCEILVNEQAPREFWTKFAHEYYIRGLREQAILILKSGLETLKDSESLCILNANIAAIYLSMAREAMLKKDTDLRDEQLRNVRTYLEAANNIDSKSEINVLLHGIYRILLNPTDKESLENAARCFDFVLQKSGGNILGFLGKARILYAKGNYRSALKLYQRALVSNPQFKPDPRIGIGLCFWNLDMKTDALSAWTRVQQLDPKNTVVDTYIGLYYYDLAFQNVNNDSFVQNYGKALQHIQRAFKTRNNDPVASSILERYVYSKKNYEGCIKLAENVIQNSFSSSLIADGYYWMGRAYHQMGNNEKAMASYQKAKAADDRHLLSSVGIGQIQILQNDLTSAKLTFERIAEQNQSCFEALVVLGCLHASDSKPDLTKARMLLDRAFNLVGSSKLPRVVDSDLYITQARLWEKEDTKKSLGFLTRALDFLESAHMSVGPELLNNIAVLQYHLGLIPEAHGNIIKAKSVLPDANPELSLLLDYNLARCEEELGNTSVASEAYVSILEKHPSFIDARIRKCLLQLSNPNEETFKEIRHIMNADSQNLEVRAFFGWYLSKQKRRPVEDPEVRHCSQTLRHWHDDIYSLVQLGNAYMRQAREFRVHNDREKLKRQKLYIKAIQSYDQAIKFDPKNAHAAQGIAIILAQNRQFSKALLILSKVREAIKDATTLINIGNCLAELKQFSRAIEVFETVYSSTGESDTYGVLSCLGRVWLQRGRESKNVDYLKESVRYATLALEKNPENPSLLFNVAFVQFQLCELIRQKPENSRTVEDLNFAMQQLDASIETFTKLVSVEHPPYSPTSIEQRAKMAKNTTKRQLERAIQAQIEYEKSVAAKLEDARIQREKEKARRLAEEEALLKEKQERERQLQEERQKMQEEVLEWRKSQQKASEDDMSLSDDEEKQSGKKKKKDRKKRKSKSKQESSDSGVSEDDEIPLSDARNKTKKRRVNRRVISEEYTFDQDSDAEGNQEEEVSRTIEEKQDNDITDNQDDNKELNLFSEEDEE

Rhp6 (S. pombe) = target: T2, Rhp6 (S. pombe) (UniProt P23566)
T2 sequence: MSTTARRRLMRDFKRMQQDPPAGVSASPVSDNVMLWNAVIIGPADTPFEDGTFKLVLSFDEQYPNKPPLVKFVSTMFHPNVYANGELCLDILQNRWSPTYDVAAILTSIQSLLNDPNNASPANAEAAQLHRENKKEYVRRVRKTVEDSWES

Taf2 (S. pombe) = target: T3, Taf2 (S. pombe) (UniProt P87121)
T3 sequence: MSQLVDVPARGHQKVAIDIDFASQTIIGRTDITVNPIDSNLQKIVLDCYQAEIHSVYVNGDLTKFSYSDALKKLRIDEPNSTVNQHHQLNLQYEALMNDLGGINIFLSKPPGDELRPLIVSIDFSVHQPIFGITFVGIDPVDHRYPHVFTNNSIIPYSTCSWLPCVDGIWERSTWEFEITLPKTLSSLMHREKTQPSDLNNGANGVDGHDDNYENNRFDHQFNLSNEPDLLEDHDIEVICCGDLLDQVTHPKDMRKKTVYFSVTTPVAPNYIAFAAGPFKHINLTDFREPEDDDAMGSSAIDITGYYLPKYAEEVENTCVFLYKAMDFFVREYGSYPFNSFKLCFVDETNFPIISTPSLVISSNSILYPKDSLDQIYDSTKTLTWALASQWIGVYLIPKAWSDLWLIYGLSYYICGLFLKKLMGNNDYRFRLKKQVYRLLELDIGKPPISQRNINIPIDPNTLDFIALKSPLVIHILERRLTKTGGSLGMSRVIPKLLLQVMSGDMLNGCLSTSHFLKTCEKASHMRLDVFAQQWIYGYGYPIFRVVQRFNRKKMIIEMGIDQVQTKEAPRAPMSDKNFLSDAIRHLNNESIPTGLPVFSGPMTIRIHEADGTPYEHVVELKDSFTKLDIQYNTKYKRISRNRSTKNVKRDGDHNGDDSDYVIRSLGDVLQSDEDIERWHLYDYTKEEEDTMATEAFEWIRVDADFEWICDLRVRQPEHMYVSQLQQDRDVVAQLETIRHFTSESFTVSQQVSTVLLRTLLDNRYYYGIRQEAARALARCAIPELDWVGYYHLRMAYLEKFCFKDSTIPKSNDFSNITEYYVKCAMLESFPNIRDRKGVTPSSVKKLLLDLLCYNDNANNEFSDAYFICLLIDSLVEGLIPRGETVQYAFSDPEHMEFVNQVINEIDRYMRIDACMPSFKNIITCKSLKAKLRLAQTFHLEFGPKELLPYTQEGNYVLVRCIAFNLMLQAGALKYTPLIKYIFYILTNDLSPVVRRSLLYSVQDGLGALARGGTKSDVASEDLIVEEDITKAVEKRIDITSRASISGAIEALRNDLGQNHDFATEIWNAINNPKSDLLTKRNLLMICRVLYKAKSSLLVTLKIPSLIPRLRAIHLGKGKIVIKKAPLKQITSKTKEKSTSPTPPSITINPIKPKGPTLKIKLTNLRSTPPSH

B1: Gad8 (protein, UniProt Q9P7J8 1-569)
chain: MSWKLTKKLKETHLASAIGLNSGGSSFTRGLKNSTLSSTSSRKSSDEKSRKSSEDKRSPQSTVVQPGLLQVTIIEARNLKLPSGHVPANYGVSIDNSLLAPPLSNGSGHARSRSHAWWLPYIVVEFDKNEILVDALNTASLENPCWDYQATFDVSRYSKLSLNIYLRSSSSRSRNGMGNDAFLGGIKLSPSFIVNKLTDEWVPLHGGSGELRVQMLYKPNQSTPLTIDAFELLKVVGKGSFGKVMQVRKRDTSRIYALKTMKKAHIVSRSEVDHTLAERTVLAQVNNPFIVPLKFSFQSPGKLYLVLAFVNGGELFHHLQREGCFDTYRAKFYIAELLVALECLHEFNVIYRDLKPENILLDYTGHIALCDFGLCKLNMAKTDRTNTFCGTPEYLAPELLLGHGYTKVVDWWTLGVLLYEMITGLPPFYDENINEMYRKILQDPLRFPDNIDEKAKDLLSGLLTRAPEKRLGSGGAQEIKNHPFFDDIDWKKLCAKKIQPPFKPSVESAIDTSNFDSEFTSEIPMDSVVADSHLSETVQQRFANWSYQRPTTIDTSDDINTIAPGSVIR
binding (Pob3 (S. pombe)): binds
binding (Tpr1 (S. pombe)): no binding
binding (Rhp6 (S. pombe)): binds
binding (Taf2 (S. pombe)): binds
